Values from PubChem BioAssay AID1259308 (NCATS, 2017).
Assay: 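Candidate targets for better recombinant protein yield in mammalian cells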 (primary screen). Cells: human HEK293 embryonic kidney cells stably expressing firefly luciferase (HEK-CMV-Luc2-Hygro). Reagent: single siRNA against human genes, 0.8 pmol siRNA per well. Timing: 72 h. Measured: 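Luciferase light (ONE-Glo) measured on one replicate plate set and viability (CellTiter-Glo) on the other, scaled to a negative control siRNA, with robust z-scores and luciferase per cell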. Direction: total luciferase, z-score and total luciferase, % of control: higher = more reporter protein produced; luciferase per cell, z-score: higher = more reporter output per viable cell. Call rule: 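An siRNA counts as active if its total luciferase robust z-score exceeds 3; genes with two or more such siRNAs out of three were retested with fresh siRNAs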. Meaning of the calls: active = raised luciferase; inactive = no rise.
The whole screen tested about 59,000 reagents; shown is a part drawn at random. Over the whole deposit, about 1,510 (2.6%) are marked active. 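Calls use total luciferase alone and ignore viability, so some active siRNAs may act by altering cell number.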 The numbers tell different reagents against one gene apart. Further read-outs or replicates are left out here.

| gene knocked down | reagent no. | total luciferase, z-score | total luciferase, % of control | luciferase per cell, z-score | activity call |
| --- | --- | --- | --- | --- | --- |
| EDNRB | 1 | 1.71 | 116 | 1.63 | inactive |
| EDNRB | 2 | -0.97 | 62.6 | -1.03 | inactive |
| EDNRB | 3 | 1.05 | 103 | 0.657 | inactive |
| RFFL | 1 | -2.05 | 41.2 | -2.22 | inactive |
| RFFL | 2 | 0.215 | 86.2 | 0.938 | inactive |
| RFFL | 3 | -0.98 | 62.4 | -1.2 | inactive |
| NEDD4 | 1 | -1.24 | 57.2 | -1.71 | inactive |
| NEDD4 | 2 | -0.73 | 67.4 | -0.892 | inactive |
| NEDD4 | 3 | 0.387 | 89.6 | 1.14 | inactive |
| MYEOV | 1 | 0.246 | 86.8 | -0.0762 | inactive |
| MYEOV | 2 | -0.847 | 65 | 0.101 | inactive |
| MYEOV | 3 | 0.74 | 96.6 | 1.17 | inactive |
| NLRP14 | 1 | -1.08 | 60.4 | -0.0788 | inactive |
| NLRP14 | 2 | 0.185 | 85.6 | 0.323 | inactive |
| NLRP14 | 3 | 0.196 | 85.8 | 0.24 | inactive |
| CEACAM4 | 1 | -0.166 | 78.6 | -0.896 | inactive |
| CEACAM4 | 2 | -0.597 | 70 | -0.429 | inactive |
| CEACAM4 | 3 | 2.04 | 123 | 1.69 | inactive |
| EXOC1L | 1 | -0.506 | 71.8 | -0.00166 | inactive |
| EXOC1L | 2 | 1.66 | 115 | 0.737 | inactive |
| EXOC1L | 3 | 2.13 | 124 | 1.55 | inactive |
| AMTN | 1 | -0.765 | 66.7 | -1.27 | inactive |
| AMTN | 2 | 0.16 | 85.1 | 2.11 | inactive |
| AMTN | 3 | 2.1 | 124 | 0.9 | inactive |
| OR56A1 | 1 | 0.663 | 95.1 | 1.76 | inactive |
| OR56A1 | 2 | -0.187 | 78.2 | 0.0431 | inactive |
| OR56A1 | 3 | -0.177 | 78.4 | -0.441 | inactive |

10 entries from above, sorted by “total luciferase, % of control”, highest first.
| gene knocked down | reagent no. | total luciferase, z-score | total luciferase, % of control | luciferase per cell, z-score | activity call |
| --- | --- | --- | --- | --- | --- |
| CEACAM4 | 3 | 2.04 | 123 | 1.69 | inactive |
| MYEOV | 3 | 0.74 | 96.6 | 1.17 | inactive |
| MYEOV | 1 | 0.246 | 86.8 | -0.0762 | inactive |
| NLRP14 | 3 | 0.196 | 85.8 | 0.24 | inactive |
| NLRP14 | 2 | 0.185 | 85.6 | 0.323 | inactive |
| CEACAM4 | 1 | -0.166 | 78.6 | -0.896 | inactive |
| EXOC1L | 1 | -0.506 | 71.8 | -0.00166 | inactive |
| CEACAM4 | 2 | -0.597 | 70 | -0.429 | inactive |
| MYEOV | 2 | -0.847 | 65 | 0.101 | inactive |
| NLRP14 | 1 | -1.08 | 60.4 | -0.0788 | inactive |

More results:
| gene knocked down | reagent no. | total luciferase, z-score | total luciferase, % of control | luciferase per cell, z-score | activity call |
| --- | --- | --- | --- | --- | --- |
| TLR8 | 1 | -1.79 | 46.2 | -2.09 | inactive |
| TLR8 | 2 | -0.927 | 63.4 | -0.616 | inactive |
| TLR8 | 3 | -0.838 | 65.2 | -1.39 | inactive |
| LCN8 | 1 | -0.254 | 76.8 | -0.145 | inactive |
| LCN8 | 2 | -0.608 | 69.8 | -0.427 | inactive |
| LCN8 | 3 | -0.215 | 77.6 | 0.165 | inactive |
| SNRNP25 | 1 | 0.734 | 96.5 | 0.371 | inactive |
| SNRNP25 | 2 | 1.02 | 102 | 0.533 | inactive |
| SNRNP25 | 3 | 0.282 | 87.5 | 1.31 | inactive |
| YAP1 | 1 | -0.547 | 71 | -0.693 | inactive |
| YAP1 | 2 | 0.875 | 99.3 | 0.652 | inactive |
| YAP1 | 3 | 0.235 | 86.6 | 0.287 | inactive |
| COA6 | 1 | -0.39 | 74.1 | -0.191 | inactive |
| COA6 | 2 | 1.67 | 115 | 0.571 | inactive |
| COA6 | 3 | 0.423 | 90.3 | 0.506 | inactive |
| PKD1L2 | 1 | 1.09 | 104 | 0.627 | inactive |
| PKD1L2 | 2 | -0.218 | 77.6 | -1.05 | inactive |
| PKD1L2 | 3 | -1.04 | 61.2 | -1.13 | inactive |
| ALDH1L2 | 1 | 0.408 | 90 | -0.446 | inactive |
| ALDH1L2 | 2 | 0.641 | 94.6 | 0.676 | inactive |
| ALDH1L2 | 3 | 1.85 | 119 | 1.14 | inactive |
| ASB5 | 1 | 0.00689 | 82 | 1.21 | inactive |
| ASB5 | 2 | 0.584 | 93.5 | 0.0138 | inactive |
| ASB5 | 3 | -0.708 | 67.8 | 0.0715 | inactive |
| C12orf56 | 1 | -0.03 | 81.3 | 0.641 | inactive |
| C12orf56 | 2 | -0.216 | 77.6 | -0.147 | inactive |
| C12orf56 | 3 | -0.99 | 62.2 | -1.23 | inactive |
| MTBP | 1 | 0.372 | 89.3 | 0.957 | inactive |
| MTBP | 2 | 0.717 | 96.1 | 0.457 | inactive |
| MTBP | 3 | -0.66 | 68.8 | -0.773 | inactive |
